One molecule from patent publication US20210261667A1 can be followed below.

Results are given in words; binding and its absence hold for the method and conditions named. Binding can be weak; no strength is given.

Assay [1] has as its target monkey PD-L1 (monkey). The assay can be described thus: ELISA, coated antigen. A general note: In an ELISA, binding on a coated surface is turned into a signal by an enzyme label.
For assay [2], the target named is monkey PD-L1 (monkey). The assay can be described thus: ELISA on coated antigen, A405 nm; single antibody concentration, 10 ug/mL by paragraph 203.

B1: bivalent anti-PD-L1 single-domain antibody before humanization (Fc fusion, not shown: a dimerising Fc or GST)
chain: QVQLQESGGGSVQAGGSLRLSCTASGYNLSPSCMGWFRQAPGKEREGVAFTDADGSTRYADSVKARFTISRDNAENTLYLQMNSLKPEDTAMYYCAADFFSYCSVVFRASARDKYRGQGTQVTVSS
Take B1: the binding entry with monkey PD-L1 (monkey) [1] and with monkey PD-L1 (monkey) [2] was “binds” each time.
